No constants are given. Whether binding was seen depends on the method and setting. Some entries that bind do so weakly or less than the wild type. Tags and fused reporters may be left off the sequences shown.
T1: IL13Ra2 on the cell surface (UniProt Q14627)
T1 sequence (looked up): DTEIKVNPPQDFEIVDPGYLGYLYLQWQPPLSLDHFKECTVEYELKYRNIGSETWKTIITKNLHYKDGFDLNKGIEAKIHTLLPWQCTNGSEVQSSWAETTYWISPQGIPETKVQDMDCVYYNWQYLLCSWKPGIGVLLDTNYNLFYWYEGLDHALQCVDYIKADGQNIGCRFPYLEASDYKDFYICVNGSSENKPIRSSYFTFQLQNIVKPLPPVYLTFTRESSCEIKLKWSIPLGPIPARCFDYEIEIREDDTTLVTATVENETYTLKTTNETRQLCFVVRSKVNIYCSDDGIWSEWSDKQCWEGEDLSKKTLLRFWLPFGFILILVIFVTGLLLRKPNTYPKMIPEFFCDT


Target: T1, IL13Ra2 on the cell surface
Test: flow cytometry on cells, APC goat anti-mouse IgG detection

Row | Binder | binding
1 | 抗IL13Ra2纳米抗体VHH-7 (VHH-mIgG2a Fc) (Fc fusion, not shown: a dimerising Fc or GST) QVQLVESGGGLAHPGGRLRVTCTASGANLKNYAVGWFRQRPGKQREEVACLRVRYANTNKAPSVRERVHVFREENNNLVYMLMSDLTPEDTGIYYCAARPQQPSADCSLLANDYDNWGQGIQVTVSE | binds
2 | 抗IL13Ra2纳米抗体VHH-1 (VHH-mIgG2a Fc) (Fc fusion, not shown: a dimerising Fc or GST) QVQLVESGGGLVQPGGSLRLSCAASGFTLDYYAIAWFRQAPGKRREGVSCISSSEGSTNYADSVKGRFTISRDNAKNTVYLQMNSLKPEDTAVYYCAADSTGRCWARPLYEYDYRGQGTQVTVSS | binds
3 | 抗IL13Ra2纳米抗体VHH-13 (VHH-mIgG2a Fc) (Fc fusion, not shown: a dimerising Fc or GST) QVQLVESGGGSVQAGGSLRLSCTSSRFTLDYYAIAWFRQAPGKRREGVSCISSSEGSTNYADSVKGRFTISRDNAKNTVYLQMNSLKPEDTAVYYCAADSTGRCWARPLYEYDYRGQGTQVTVSS | binds

Further lines, results first:

Row | binding | Binder
4 | binds | 抗IL13Ra2纳米抗体VHH-16 (VHH-mIgG2a Fc) (Fc fusion, not shown: a dimerising Fc or GST) QVQLVESGGGLAHPGGRLRVTCTASGANLKNYAVGWFRRRPGKQREEVACLRVRYANSNKAPSVRERVHVFREEKNNLVYMLMSDLTPEDTGIYYCAARPQQPSADCSLSANDYDNWGQGIQVTVSE
5 | binds | 抗IL13Ra2纳米抗体VHH-8 (VHH-mIgG2a Fc) (Fc fusion, not shown: a dimerising Fc or GST) QVQLVESGGGLVQPGGSLRLSCAASGFTLDYYAIAWFRQAPGKRREGVSCISSSGGSTNYANSVKGRFTISRDNAKNTVYLQMNSLKPEDTAVYYCAADSTGRCWARPLYEYDYRGQGTQVTVSS
